# Test: In vivo engraftment of adoptively transferred Vγ9Vδ2 T cells in NSG, NSG-IL15 and NOG-IL15 mice (Example 4)
# Set-up: species or system mouse
# Conditions: with 20×10^6 non-enriched Vγ9Vδ2 T cells, IL-2 25 × 10^4 IU/kg ip, Zol 2.5 mg/kg iv
substance,measurement,setting,value
IL-2: IL-2 (ProleukinR),effect of treatment on total Vγ9Vδ2 T cell counts,,negative effect
same,effect of treatment on Vγ9Vδ2 T cell engraftment or persistence,"days 0, 7, 14, 21, 28",did not improve engraftment or persistence

# Source: patent publication US20260137780A1, “MATERIALS AND METHODS FOR IMPROVED EXPANSION AND USES OF IMMUNE CELLS” (Janssen Biotech, Inc., priority 2021, published 2026)
